Laboratory results published in patent US5116748A, “Process for the production of L-alanine dehydrogenase from 78-3 FERM BP-2517” (Toyo Jozo Kabushiki Kaisha, priority 1988, dated 1992).
At least one compound was matched to its structure with a doubt left.

Tested on: L-alanine dehydrogenase from Sporolactobacillus sp. 78-3 (FERM BP-2517)
Test: Km-Value of L-alanine dehydrogenase (reductive amination, decrease of NADH at 340 nm)
Format: biochemical
Conditions: purified enzyme; substrate pyruvate
Protocol: Enzyme activity is measured by the following assay method:
The reaction mixture, 1 ml, in a 1 ml quartz cell is pre-incubated at 37° C. for 5 mins. Dilute enzyme solution, 0.02 ml with 50 mM triethanolamine buffer (pH 8.5) is added thereto and the mixture is stirred to initiate the reaction. Decrease of NADH is measured photometrically at 340 nm during the reaction. Enzyme activity is calculated by the following equation on the linear part of the curve: [formula] wherein T=reaction time (min.); X=dilution ratio.

CC(=O)C(=O)O [pyruvate] was tested. Which Km did it give?
Its Km is 840 µM.
